Source: publication PMC1820849
No constants are given. Whether binding was seen depends on the method and setting. In cells and extracts the contact can be indirect. A result given as binding can be weak or reduced; the word gives no strength.

Sequences of proteins named here, by UniProt entry; tags and fusion partners are left off. A change or cut given only in a name is not applied to a line headed by its entry.
UniProt Q9EQH4: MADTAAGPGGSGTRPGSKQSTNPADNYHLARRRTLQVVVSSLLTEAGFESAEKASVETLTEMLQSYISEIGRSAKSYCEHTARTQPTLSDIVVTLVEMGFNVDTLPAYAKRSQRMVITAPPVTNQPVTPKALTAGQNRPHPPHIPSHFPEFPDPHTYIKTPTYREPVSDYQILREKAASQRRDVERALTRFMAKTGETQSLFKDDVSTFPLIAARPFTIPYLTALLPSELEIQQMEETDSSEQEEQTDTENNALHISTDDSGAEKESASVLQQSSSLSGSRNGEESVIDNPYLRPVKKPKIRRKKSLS
UniProt O94864: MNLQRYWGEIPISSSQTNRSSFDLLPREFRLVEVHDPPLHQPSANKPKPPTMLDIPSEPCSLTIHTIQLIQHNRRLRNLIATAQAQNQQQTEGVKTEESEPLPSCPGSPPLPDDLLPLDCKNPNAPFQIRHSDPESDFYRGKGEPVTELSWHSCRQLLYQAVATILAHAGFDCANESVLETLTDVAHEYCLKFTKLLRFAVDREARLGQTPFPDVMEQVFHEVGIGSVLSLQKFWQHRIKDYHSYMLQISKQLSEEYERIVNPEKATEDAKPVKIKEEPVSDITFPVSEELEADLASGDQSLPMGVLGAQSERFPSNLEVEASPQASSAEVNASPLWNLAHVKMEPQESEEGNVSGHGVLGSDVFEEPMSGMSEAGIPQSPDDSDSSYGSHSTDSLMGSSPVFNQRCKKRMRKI
UniProt Q12962: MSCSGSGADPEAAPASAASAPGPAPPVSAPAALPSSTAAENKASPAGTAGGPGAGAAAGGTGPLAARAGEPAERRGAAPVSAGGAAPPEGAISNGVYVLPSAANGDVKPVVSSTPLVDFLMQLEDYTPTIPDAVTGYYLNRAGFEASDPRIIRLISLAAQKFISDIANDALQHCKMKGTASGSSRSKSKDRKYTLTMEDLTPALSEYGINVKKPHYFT

Target: GST-TAF8 C-terminal half lacking the HF (mouse) (UniProt Q9EQH4)
Assay: pull-down; GST fusion from E. coli on glutathione sepharose beads, incubated with Sf9 whole cell extract overexpressing the partner, 2 h at 4°C; washes with IP buffer with 500 mM KCl, then 100 mM KCl; western blot; only the target purified

For Flag-SPT7L (from UniProt O94864 1-414), the binding was “binds”.
With TAF10 (from UniProt Q12962 1-218) the binding was “no binding”.
